Assay results taken from the supplement of paper PMC7666118.
Some of the results follow.

Sequences of proteins named here, by UniProt entry; tags and fusion partners are left off. A change or cut given only in a name is not applied to a line headed by its entry.
UniProt Q641Q2, whole entry: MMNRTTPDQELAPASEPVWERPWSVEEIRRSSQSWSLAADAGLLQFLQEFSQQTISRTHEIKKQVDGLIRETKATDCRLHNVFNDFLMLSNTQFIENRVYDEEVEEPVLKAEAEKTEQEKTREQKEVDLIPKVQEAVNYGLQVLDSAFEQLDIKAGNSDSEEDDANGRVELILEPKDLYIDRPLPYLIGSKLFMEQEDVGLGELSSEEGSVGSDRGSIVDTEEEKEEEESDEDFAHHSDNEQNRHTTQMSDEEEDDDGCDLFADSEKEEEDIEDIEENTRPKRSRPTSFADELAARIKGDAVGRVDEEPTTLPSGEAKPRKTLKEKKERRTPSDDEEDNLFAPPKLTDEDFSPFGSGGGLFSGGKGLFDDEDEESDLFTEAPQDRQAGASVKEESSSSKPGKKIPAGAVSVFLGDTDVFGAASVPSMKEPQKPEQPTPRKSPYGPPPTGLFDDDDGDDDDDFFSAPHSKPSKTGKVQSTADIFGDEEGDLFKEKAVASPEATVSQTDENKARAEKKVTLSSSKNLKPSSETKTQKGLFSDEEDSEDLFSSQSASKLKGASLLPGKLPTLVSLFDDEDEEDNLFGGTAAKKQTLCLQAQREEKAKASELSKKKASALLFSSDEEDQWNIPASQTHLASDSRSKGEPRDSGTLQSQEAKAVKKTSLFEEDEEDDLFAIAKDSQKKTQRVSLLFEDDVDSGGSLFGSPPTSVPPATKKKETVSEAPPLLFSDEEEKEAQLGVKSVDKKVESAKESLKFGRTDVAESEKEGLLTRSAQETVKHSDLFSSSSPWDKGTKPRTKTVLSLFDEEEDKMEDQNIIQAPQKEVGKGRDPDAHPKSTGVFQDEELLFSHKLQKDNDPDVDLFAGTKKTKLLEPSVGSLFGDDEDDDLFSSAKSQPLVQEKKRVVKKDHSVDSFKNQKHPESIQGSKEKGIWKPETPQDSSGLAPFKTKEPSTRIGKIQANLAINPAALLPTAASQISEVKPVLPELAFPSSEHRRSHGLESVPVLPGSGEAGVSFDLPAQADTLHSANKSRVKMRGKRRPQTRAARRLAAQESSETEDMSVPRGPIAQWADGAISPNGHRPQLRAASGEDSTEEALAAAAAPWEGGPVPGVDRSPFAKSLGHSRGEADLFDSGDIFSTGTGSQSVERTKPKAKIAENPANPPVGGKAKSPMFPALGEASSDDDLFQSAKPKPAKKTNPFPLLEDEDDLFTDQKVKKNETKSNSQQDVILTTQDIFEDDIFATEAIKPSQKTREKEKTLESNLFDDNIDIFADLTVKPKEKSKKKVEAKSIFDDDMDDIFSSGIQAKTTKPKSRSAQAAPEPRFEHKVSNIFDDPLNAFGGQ
UniProt Q9UHY7: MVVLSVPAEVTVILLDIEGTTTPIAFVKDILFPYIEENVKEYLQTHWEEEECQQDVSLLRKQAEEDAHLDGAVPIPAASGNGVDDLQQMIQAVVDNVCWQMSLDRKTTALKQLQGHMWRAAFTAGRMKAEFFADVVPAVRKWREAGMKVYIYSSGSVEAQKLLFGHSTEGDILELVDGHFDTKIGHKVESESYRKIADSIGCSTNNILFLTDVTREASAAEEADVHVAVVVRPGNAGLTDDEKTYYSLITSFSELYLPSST
UniProt Q8IV48: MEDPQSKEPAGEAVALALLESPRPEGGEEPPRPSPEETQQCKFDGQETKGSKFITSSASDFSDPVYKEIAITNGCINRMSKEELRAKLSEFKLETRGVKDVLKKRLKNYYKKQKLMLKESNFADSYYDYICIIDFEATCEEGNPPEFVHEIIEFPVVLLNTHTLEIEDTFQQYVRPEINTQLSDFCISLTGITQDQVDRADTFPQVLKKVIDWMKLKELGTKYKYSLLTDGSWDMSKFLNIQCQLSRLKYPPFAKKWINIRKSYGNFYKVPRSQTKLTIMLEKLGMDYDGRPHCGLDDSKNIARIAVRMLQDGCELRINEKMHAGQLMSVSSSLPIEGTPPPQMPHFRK
UniProt Q92520: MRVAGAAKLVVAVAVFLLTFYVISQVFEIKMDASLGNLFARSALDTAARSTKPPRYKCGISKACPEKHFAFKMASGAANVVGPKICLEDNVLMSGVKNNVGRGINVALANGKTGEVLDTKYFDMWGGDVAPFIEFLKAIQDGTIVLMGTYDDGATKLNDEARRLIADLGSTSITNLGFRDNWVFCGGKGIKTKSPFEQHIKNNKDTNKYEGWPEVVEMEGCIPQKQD
UniProt O95834: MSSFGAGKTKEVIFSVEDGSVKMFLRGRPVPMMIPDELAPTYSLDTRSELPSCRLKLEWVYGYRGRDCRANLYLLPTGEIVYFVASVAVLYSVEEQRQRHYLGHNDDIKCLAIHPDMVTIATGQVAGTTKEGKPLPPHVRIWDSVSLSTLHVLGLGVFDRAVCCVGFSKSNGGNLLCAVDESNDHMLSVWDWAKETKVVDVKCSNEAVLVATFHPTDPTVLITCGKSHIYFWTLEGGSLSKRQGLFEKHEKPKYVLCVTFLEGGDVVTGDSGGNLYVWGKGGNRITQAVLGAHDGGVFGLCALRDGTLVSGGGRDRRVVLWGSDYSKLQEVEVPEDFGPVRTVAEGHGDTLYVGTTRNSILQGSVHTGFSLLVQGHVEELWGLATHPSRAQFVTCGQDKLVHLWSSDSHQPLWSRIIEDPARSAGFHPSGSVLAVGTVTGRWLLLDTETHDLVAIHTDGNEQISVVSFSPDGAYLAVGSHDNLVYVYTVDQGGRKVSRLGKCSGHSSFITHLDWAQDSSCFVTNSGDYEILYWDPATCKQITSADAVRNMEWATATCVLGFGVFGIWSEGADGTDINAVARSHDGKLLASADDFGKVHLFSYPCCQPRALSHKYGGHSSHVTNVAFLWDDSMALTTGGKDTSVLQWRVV
UniProt Q5W0V3: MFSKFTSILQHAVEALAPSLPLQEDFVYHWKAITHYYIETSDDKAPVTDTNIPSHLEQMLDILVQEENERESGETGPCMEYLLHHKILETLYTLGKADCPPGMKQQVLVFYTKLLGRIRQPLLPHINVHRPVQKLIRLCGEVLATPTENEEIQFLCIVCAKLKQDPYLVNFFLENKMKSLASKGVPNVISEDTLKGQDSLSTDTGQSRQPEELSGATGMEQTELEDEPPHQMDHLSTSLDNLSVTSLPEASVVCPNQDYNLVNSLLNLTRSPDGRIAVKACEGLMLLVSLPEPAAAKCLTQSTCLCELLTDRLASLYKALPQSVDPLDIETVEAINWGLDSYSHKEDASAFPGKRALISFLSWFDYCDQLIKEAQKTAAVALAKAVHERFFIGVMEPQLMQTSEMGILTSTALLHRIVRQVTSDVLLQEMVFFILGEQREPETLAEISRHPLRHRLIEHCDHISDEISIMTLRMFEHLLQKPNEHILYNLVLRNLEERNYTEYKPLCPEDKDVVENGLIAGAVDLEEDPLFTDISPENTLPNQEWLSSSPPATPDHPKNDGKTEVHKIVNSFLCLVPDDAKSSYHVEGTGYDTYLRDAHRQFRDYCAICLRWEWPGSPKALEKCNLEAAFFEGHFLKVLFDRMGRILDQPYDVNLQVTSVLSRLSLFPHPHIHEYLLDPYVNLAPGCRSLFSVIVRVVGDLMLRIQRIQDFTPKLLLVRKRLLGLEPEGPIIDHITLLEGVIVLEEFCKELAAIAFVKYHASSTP
UniProt Q5JPH6: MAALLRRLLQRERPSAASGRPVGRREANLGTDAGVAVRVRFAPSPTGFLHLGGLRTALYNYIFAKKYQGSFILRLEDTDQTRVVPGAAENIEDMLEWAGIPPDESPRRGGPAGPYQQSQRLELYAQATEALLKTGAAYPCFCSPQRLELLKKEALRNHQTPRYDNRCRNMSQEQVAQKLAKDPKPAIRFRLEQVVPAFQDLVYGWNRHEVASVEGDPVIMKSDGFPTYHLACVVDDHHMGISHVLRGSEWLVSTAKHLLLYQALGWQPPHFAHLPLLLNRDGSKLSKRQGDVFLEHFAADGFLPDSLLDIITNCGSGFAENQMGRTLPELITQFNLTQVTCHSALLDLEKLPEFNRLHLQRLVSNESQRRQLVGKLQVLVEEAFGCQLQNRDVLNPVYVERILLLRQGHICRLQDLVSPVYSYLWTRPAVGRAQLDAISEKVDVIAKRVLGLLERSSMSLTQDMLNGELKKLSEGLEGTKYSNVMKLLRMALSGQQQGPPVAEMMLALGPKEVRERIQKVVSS
UniProt Q9H9T3: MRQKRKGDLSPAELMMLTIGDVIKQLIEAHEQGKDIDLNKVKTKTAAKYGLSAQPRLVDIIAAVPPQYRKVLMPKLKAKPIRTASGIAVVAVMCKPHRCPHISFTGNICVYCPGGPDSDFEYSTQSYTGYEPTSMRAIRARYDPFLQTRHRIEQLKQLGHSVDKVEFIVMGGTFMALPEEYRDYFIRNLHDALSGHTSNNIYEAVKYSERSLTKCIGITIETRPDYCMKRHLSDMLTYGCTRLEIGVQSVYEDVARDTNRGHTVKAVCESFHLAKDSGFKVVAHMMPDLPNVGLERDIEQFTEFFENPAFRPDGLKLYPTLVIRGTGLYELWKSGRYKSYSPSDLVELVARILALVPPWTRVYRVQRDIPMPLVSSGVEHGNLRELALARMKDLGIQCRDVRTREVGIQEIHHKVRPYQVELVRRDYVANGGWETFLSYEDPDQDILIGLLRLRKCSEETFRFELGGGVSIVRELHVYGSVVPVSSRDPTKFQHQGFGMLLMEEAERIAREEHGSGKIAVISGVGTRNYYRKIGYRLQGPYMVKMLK
UniProt Q9P2K8: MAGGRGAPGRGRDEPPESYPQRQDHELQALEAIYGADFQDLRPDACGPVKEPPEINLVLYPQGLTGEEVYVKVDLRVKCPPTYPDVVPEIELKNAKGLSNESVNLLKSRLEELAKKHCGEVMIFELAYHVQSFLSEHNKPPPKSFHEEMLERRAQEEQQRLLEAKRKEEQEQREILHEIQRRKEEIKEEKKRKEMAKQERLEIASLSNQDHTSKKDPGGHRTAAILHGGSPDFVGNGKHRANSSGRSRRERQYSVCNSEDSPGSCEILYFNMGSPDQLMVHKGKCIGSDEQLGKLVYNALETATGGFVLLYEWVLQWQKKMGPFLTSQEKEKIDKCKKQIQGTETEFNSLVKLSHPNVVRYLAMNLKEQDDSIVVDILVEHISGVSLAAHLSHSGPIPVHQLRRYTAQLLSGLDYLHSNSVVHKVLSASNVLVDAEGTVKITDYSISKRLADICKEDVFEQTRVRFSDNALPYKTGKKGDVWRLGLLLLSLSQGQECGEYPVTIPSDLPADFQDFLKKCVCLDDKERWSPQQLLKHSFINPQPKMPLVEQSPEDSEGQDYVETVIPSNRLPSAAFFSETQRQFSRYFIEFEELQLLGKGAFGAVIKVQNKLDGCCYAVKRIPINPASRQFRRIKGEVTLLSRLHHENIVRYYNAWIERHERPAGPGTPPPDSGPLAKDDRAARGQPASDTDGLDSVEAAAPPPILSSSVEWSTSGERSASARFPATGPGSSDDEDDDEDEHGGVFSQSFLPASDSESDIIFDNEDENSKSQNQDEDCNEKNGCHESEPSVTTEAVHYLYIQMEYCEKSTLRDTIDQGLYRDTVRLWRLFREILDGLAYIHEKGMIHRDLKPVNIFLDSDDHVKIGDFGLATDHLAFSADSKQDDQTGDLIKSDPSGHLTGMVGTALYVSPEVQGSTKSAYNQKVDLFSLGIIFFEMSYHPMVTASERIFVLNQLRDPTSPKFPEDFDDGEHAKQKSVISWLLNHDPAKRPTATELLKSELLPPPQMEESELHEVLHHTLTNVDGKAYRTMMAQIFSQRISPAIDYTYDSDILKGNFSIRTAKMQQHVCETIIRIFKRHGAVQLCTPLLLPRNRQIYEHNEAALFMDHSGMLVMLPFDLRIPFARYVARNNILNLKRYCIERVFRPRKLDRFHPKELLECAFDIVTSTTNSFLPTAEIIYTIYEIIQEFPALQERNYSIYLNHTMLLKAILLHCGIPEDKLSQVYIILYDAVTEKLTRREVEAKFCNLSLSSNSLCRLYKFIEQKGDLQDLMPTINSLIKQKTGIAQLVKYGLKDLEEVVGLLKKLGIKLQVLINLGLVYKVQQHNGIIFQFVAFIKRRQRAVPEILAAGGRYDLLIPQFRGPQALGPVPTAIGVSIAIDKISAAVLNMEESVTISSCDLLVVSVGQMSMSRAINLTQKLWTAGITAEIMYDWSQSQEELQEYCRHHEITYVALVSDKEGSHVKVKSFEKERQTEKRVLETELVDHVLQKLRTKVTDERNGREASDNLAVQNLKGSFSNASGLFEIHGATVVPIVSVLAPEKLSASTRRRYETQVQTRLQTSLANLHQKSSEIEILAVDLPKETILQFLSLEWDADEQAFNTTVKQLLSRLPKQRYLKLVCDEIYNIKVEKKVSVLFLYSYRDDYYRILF

Compound: COc1ccc(Cn2ccc3cc(C)c(C(=O)NO)cc32)cc1
Assay: dose-dependent thermal stabilisation call (2D-TPP, DLPTP, 10% FDR) (binary (1 = stabilised)); higher = stabilised by the compound
Conditions: system: HL-60 intact cells; concentration range 0.04-10 µM
Protocol: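 2D thermal proteome profiling in intact HL-60 cells treated with BRD-3811 (0, 0.04, 0.29, 2, 10 uM) for 90 min at 37 C, then heated 3 min at one of 12 temperatures (42-63.9 C). Soluble protein was quantified by TMT10 MS. The value is the DLPTP call of the paper: dose-dependent thermal stabilisation over all temperatures at 10% FDR (F-test of a dose-response against a flat model); one experiment, one call per tested protein.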

Target | dose-dependent thermal stabilisation call
DSCC1 (UniProt Q9BVC3) | inactive: 0
ECHS1 (UniProt P30084) | inactive: 0
EXOSC6 (UniProt Q5RKV6) | inactive: 0
FAM21B (UniProt Q641Q2) | inactive: 0
EXTL3 (UniProt O43909) | inactive: 0
FAM117A (UniProt Q9C073) | inactive: 0
EVL (UniProt Q9UI08) | inactive: 0
EIF1AD (UniProt Q8N9N8) | inactive: 0
EHMT1 (UniProt Q9H9B1) | inactive: 0
ENOPH1 (UniProt Q9UHY7) | inactive: 0
DUSP3 (UniProt P51452) | inactive: 0
FAM134C (UniProt Q86VR2) | inactive: 0
ERLIN2 (UniProt O94905) | inactive: 0
ETNK1 (UniProt Q9HBU6) | inactive: 0
EBAG9 (UniProt O00559) | inactive: 0
DYNLL1 (UniProt P63167) | inactive: 0
ERI1 (UniProt Q8IV48) | inactive: 0
ENTPD6 (UniProt O75354) | inactive: 0

Looked up one by one from the list above (2):
Target | dose-dependent thermal stabilisation call
ETNK1 (UniProt Q9HBU6) | inactive: 0
ERLIN2 (UniProt O94905) | inactive: 0

Continued.

Target | dose-dependent thermal stabilisation call
EMB (UniProt Q6PCB8) | inactive: 0
DUSP12 (UniProt Q9UNI6) | inactive: 0
FAM3C (UniProt Q92520) | inactive: 0
ERCC8 (UniProt Q13216) | inactive: 0
EML2 (UniProt O95834) | inactive: 0
EIF4H (UniProt Q15056) | inactive: 0
EPC1 (UniProt Q9H2F5) | inactive: 0
DYNC2LI1 (UniProt Q8TCX1) | inactive: 0
EIF2S2 (UniProt P20042) | inactive: 0
EP300 (UniProt Q09472) | inactive: 0
DTD1 (UniProt Q8TEA8) | inactive: 0
FAM160B1 (UniProt Q5W0V3) | inactive: 0
EARS2 (UniProt Q5JPH6) | inactive: 0
FAM120B (UniProt Q96EK7) | inactive: 0
ELP3 (UniProt Q9H9T3) | inactive: 0
EIF2AK4 (UniProt Q9P2K8) | inactive: 0
EEF1B2 (UniProt P24534) | inactive: 0
ENDOD1 (UniProt O94919) | inactive: 0
